Patent US20240228472A1, “HETEROCYCLIC COMPOUND AND HARMFUL-ARTHROPOD-CONTROLLING COMPOSITION CONTAINING SAME” (SUMITOMO CHEMICAL COMPANY, LIMITED, priority 2021, published 2024)
Some entries share one result that the patent states for a list of compounds. At least one compound was matched to its structure with a doubt left.

Experiments:
Type in all cases: in vivo
[1] = test system: brown planthoppers (Nilaparvata lugens); experiment: Test method 4: spray on rice seedling, brown planthopper larvae released (Formulation example 5); conditions: Test Example 4-1; 200 ppm; 3rd instar larvae; after 6 days
[2] = test system: common house mosquito (Culex pipiens pallens); experiment: Test method 6: common house mosquito larvae in diluted solution, 1 day; conditions: Test Example 6-1; 3.5 ppm; last instar larvae; after 1 day
[3] = test system: brown planthoppers (Nilaparvata lugens); experiment: Test method 3: spray on rice seedling, brown planthopper larvae released (Formulation example 1); conditions: Test Example 3-1; 500 ppm; 3rd instar larvae; after 5 days
[4] = test system: Silverleaf whiteflies (Bemisia tabaci); experiment: Test method 5: spray on tomato seedling carrying silverleaf whitefly larvae; conditions: Test Example 5-1; 200 ppm; spray 10 mL/seedling; after 7 days
[5] = test system: cotton aphids (Aphis gossypii); experiment: Test method 1: foliar spray on cucumber seedling infested with cotton aphids (Formulation example 1); conditions: Test Example 1-1; 500 ppm; spray 10 mL/seedling; after 5 days
[6] = test system: cotton aphids (Aphis gossypii); experiment: Test method 2: foliar spray on cucumber seedling infested with cotton aphids (Formulation example 5); conditions: Test Example 2-1; 200 ppm; spray 10 mL/seedling; after 5 days

| SMILES | mortality [1] [%] | mortality [3] [%] | further results |
| --- | --- | --- | --- |
| Cc1ccc(-c2nn(-c3c(Cl)cncc3Cl)c(=O)o2)cc1I [compound 70] | ≥ 90 | – | – |
| CCOc1ccc(-c2nn(-c3c(Cl)cncc3Cl)c(=O)o2)cc1 [compound 107] | – | – | mortality [2]: ≥ 91% |
| Cc1ccccc1-c1cnccc1-n1nc(-c2cccc(C(F)(F)F)c2)oc1=O [compound 122] | – | ≥ 90 | – |
| Cc1cncc(C)c1-n1nc(-c2cccc(OC(F)(F)F)c2)oc1=O [compound 128] | ≥ 90 | ≥ 90 | – |
| CCc1cncc(CC)c1-n1nc(-c2cccc(C(F)(F)F)c2)oc1=O [compound 131] | ≥ 90 | ≥ 90 | – |
| CC(C)c1cncc(C(C)C)c1-n1nc(-c2cccc(OC(F)(F)F)c2)oc1=O [compound 133] | ≥ 90 | ≥ 90 | – |
| O=c1oc(-c2cccc(OC(F)(F)F)c2)nn1-c1c(Cl)c[n+]([O-])cc1Cl [compound 135] | – | – | controlling value [4]: ≥ 90%; controlling value [5]: ≥ 90%; controlling value [6]: ≥ 90% |
